The target of the test is R1-I77R, isolated RING domain of rhesus TRIM5α with I77R (rhesus monkey) (UniProt Q0PF16). Nature of the test: AUC; sedimentation velocity, 20 °C, 50 mM Tris-HCl pH 7.5, 150 mM NaCl, 1 mM TCEP, c(S) analysis; both purified.

Chains of the proteins cited; added tags and fusions are not shown. Lines headed by an entry give the natural chain unless they say otherwise; changes in a name come on top. A line that says so, or that is headed by a name, gives the form on record, which may keep a tag or linker.
R1-I77R, isolated RING domain of rhesus TRIM5α with I77R (Q0PF16, form named): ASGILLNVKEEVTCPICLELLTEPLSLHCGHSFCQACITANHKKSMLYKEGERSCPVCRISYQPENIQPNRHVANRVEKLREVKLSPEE

Results are given in words; binding and its absence hold for the method and conditions named.

Turning to “R1-I77R, isolated RING domain of rhesus TRIM5α with I77R (from UniProt Q0PF16 2-90) (domain or fragment)”, the binding result was “no binding”.

Source of the values: paper PMC9675739, “Structural and functional asymmetry of RING trimerization controls priming and extension events in TRIM5α autoubiquitylation” (Nature Communications, 2022).
